Patent publication US20060013772A1, “Method and device to recover diagnostic and therapeutic agents” (University of Vermont and State Agricultural College, priority 2004, published 2006)
For at least one compound, name, drawing or mass did not settle the structure.

Experiment: Electrical resistance/conductivity of contrast medium compared with blood
Type: physicochemical
Details: 10 ml of blood vs 10 ml of contrast medium; contrast medium stated markedly higher

CC(=O)N(CC(O)CO)c1c(I)c(C(=O)NCC(O)CO)c(I)c(C(=O)NCC(O)CO)c1I (stereo not shown) [Iohexol]
difference in conductivity between blood and Iohexol (Conductivity=1/Resistance): approximately four-fold
